According to the supplement of paper PMC5407854, “Inhibitor of ppGalNAc-T3-mediated O-glycosylation blocks cancer cell invasiveness and lowers FGF23 levels” (eLife, 2017):
Over roughly 1,700 compounds, “T3 sensor activation Q score (MG/GFP ratio z-score vs DMSO controls)” has its median near 0.25; the highest 2% begin near 1.9. The list shows a part of the results.

What follows are compounds tested on ppGalNAc-T3 sensor (assay: T3 sensor activation Q score (MG/GFP ratio z-score vs DMSO controls) (SD units); higher = more sensor activation (inhibition of ppGalNAc-T3 glycosylation)). Conditions: HEK293 sensor cells; 10 µM; 6 h.
Experimental: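 Cells were treated with compound at 10 uM for 6 h, then MG/GFP ratio was read by flow cytometry (10,000 cells per well, duplicate wells). Q = (R - R_neg)/SD_neg relative to DMSO vehicle controls; the signal rises when the glycosyltransferase is inhibited.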

SMILES | T3 sensor activation Q score
O=C(O)/C=C/C(=O)Nc1cccc2cccnc12 | 0.7
Cc1cc(C)c2c(SC(C)C)nc(N)nc2n1 | -1.35
O=C(NN1CCCCC1)NN1CCCCC1 | 1.35
CC1=C2C3OC(=O)C(C)C3CCC2(C)C=C(Cl)C1=O (centres undefined) | 1.1
CCCN(CCC)c1ccc(/C=C/c2ccc3cc(OCC)ccc3n2)cc1 | 1.4
Clc1ncnc2[nH]ccc12 | -0.05
Cc1ccc2c(c1)C(=C(C#N)C#N)CCN2 | 0.05
OCc1nnn(-c2ccccc2)c1CO | -1
NNC(=O)c1nnsc1-c1csnn1 | 1.2
C/C(=C\c1csc(C)n1)[C@@H]1C[C@@H]2O[C@]2(C)CCC[C@H](C)[C@H](O)[C@@H](C)C(=O)C(C)(C)[C@@H](O)CC(=O)N1 | -1.25
Nc1ccc(C(=O)Oc2ccc([N+](=O)[O-])cc2)cc1 | -0.5
N#Cc1ccc(NC2c3ccccc3CC2O)cc1 (centres undefined) | -0.45
c1cncc(-c2nc3ccccc3s2)c1 | 0.45
O=C(CSc1nc2ccc([N+](=O)[O-])cc2s1)c1ccc2ccccc2c1 | 0.35
CN1C(=C=Cc2cc(I)c(O)c(I)c2)C(C)(C)c2ccccc21 | 1.9
Nc1nc2ccc([N+](=O)[O-])cc2[nH]1 | 1.55
CC(=O)NC1(C(=O)O)CCCC1 | -1.1
Cc1ccc(NC(=O)c2ccc(CN3CCN(C)CC3)cc2)cc1Nc1nccc(-c2cccnc2)n1 | -1.55
CCOC(=O)c1[nH]c(C(=O)O)c(OC(=O)CC)c1C | 0.75
ClC(Cl)(Cl)C1=NCc2nnn(Cc3ccccc3)c2N1 | -1.2
COc1cc2c(Nc3ccc(Br)cc3F)ncnc2cc1OCC1CCN(C)CC1 | 2.1
O=c1[nH]c(SCc2ccccc2[N+](=O)[O-])nc2nc[nH]c12 | 0.3
Nc1nc(=S)ss1 | -0.2
Cc1ccc(/C=C2\CCOC2=O)cc1 | 0.9
c1ccc(CSc2nc3ncncc3[nH]2)cc1 | -1.15

SMILES | T3 sensor activation Q score
CCCCCc1cccnc1 | 0.9
O=Cc1c[nH]c2ncccc12 | 0
C#CCSc1n[nH]c(-c2ccco2)n1 | 0.05
C1C2CC3C1C3/C2=N\N=C1/C2CC3C(C2)C13 | 0.1
FC(F)(F)c1cccc(OCC2CNC(=S)O2)c1 (centres undefined) | 1.65
Cc1cc2cc3c(=O)[nH]c(=O)cc-3n(CC(O)C(O)C(O)CO)c2cc1C (centres undefined) | 1.75
Nc1n[nH]c(=S)n1-c1ccc(Cl)cc1 | 1.5
COc1ccccc1NC(=O)c1cc2ccccc2cc1O | -0.55
CN(CC(=O)O)Cc1oc(CO)cc(=O)c1O | 0.25
c1ccc2c(c1)Oc1cccc3cccc-2c13 | 1.6
CCCCn1ccnc1C | 0.85
Cc1cc(-c2ccc(N3C(=O)CC4(CCCC4)C3=O)c(C)c2)ccc1N1C(=O)CC2(CCCC2)C1=O | 0.35
N#Cc1[nH]nc2nc[nH]c(=O)c12 | -0.4
O=C(O)CCC(=O)OCCN(Cc1ccc(Oc2ccc([N+](=O)[O-])cc2)cc1)C(=O)C(Cl)Cl | 0.2
CC1=C(/C=C/C(C)=C/C=C/C(C)=C/C(=O)O)C(C)(C)CCC1 | -0.05
CCOc1ccc(Nc2c3ccccc3nc3ccccc23)cc1 | -0.5
O=[N+]([O-])c1cccnc1Oc1cccnc1 | 0.55
Cc1ccc(Nc2c(O)nc[nH]c2=O)cc1C | -0.35
Nc1ccc(S(=O)(=O)NCC2CCCCO2)cc1 (centres undefined) | 1.6
COc1ccc2c(c1)c1ccc3c(c1n2C)C(=O)C=CC3=O | -0.85
Cc1cc2nc(CS)[nH]c2cc1C | -1.1
COc1ccc(/C(C#N)=C/c2ccccn2)cc1 | 0.95
COc1ccc(C2C3=C(COC3=O)Oc3cc4c(cc32)OCO4)cc1OC (centres undefined) | 0.05
CCCCN1C(=O)CC2CCOC21C (centres undefined) | -0.85
c1ccc(Sc2ncccn2)nc1 | 0.5

SMILES | T3 sensor activation Q score
C#Cc1cccc(NC(=O)c2ccc(Cl)cc2Cl)c1 | -0.65
O=[N+]([O-])c1cc(-c2cccnc2)n[nH]1 | 1
O=C(C(=O)c1cccnc1)c1cccnc1 | 1.75
O=C(CCl)NC1(C(=O)O)CCCC1 | 0.85
CCOC(=O)Nc1ccc(C(=O)/C=C/c2ccccc2)cc1 | 0.85
Cc1ccccc1NC(=O)Oc1cccc(OC(=O)c2ccccc2)c1 | 1.1
CCC/C(C)=C/c1ccc(CC)cn1 | -0.85
CC(C)=NNc1ncnc2nc[nH]c12 | 0.55
CO[C@H]1C[C@@H]2CC[C@@H](C)[C@@](O)(O2)C(=O)C(=O)N2CCCC[C@H]2C(=O)O[C@H]([C@H](C)C[C@@H]2CC[C@@H](OCCO)[C@H](OC)C2)CC(=O)[C@H](C)/C=C(\C)[C@@H](O)[C@@H](OC)C(=O)[C@H](C)C[C@H](C)/C=C/C=C/C=C/1C | 0.25
Nc1ccn([C@@H]2O[C@H](CO)[C@@H](O)C2(F)F)c(=O)n1 | -1.2
CC(=O)O[C@@]12CO[C@@H]1C[C@H](O)[C@@]1(C)C(=O)[C@H](O)C3=C(C)[C@@H](OC(=O)[C@H](O)[C@@H](NC(=O)OC(C)(C)C)c4ccccc4)C[C@@](O)([C@@H](OC(=O)c4ccccc4)[C@H]21)C3(C)C | -1
N#CCCCCN1CCCC1 | -0.25
O=c1nc2onnc2c(/C=N\O)[nH]1 | 1.2
Nc1cccc2c1C(=O)N(C1CCC(=O)NC1=O)C2=O (centres undefined) | -0.1
NC(=O)Cc1ccc2c(c1)[nH]c1ccccc12 | 0.35
CC(C)(C)C(=O)/C=C/c1ccc(Oc2ccccc2)cc1 | -0.3
CCCCCc1cc(=O)[nH]c(=S)[nH]1 | -0.65
CC1(c2ccc3ccccc3c2)CCC(=O)O1 (centres undefined) | -0.4
COC1OC(CO)C(N=C(C)C)C1O (centres undefined) | -0.35
CC(C)=CCC/C(C)=C\C(N)=O | 0.2
NC(=O)NC(=O)c1nccnc1C(=O)O | 0.7
CCC(CC)c1ncc[nH]1 | 1.8
C=CCOc1c(CCC)cc(CCC)cc1C(N)=O | 0.45
Cc1ccc(CC#N)c(-c2c(CC#N)ccc(C)c2C)c1C | -0.85
CC(C)Cc1nnc(N)s1 | 0.55

Copied from the list:
Nc1nc(=S)ss1 | T3 sensor activation Q score: -0.2
O=C(CSc1nc2ccc([N+](=O)[O-])cc2s1)c1ccc2ccccc2c1 | T3 sensor activation Q score: 0.35
FC(F)(F)c1cccc(OCC2CNC(=S)O2)c1 (centres undefined) | T3 sensor activation Q score: 1.65
COc1ccc(/C(C#N)=C/c2ccccn2)cc1 | T3 sensor activation Q score: 0.95

Next structures.

SMILES | T3 sensor activation Q score
Cc1cccc(N2CCN(CC(O)COc3ccccc3Cl)CC2)c1 (centres undefined) | 0
O=c1cc2oc3cc(O)c(O)cc3c(-c3ccccc3O)c-2cc1O | -1.25
O=C1NCCc2c1[nH]c1ccccc21 | -0.6
CC(=O)OC1CCC2(C)C(=CCC3C2CCC2(C)C3CC3OC4(CCC(C)CN4)C(C)C32)C1 (centres undefined) | 0.25
Cc1ccc(NC(=O)Nc2ccccc2C(N)=O)cc1 | -0.95
CC1(C)CC[C@]2(C(=O)n3ccnc3)CC[C@]3(C)[C@H](C(=O)C=C4[C@@]5(C)C=C(C#N)C(=O)C(C)(C)[C@@H]5CC[C@]43C)[C@@H]2C1 | 0.2
C=C(C)c1nc(Oc2ccccc2)nc(Oc2ccccc2)n1 | 1.3
N#Cc1cnn2ccn(C3OC(CO)C(O)C3O)c12 (centres undefined) | 0.35
O=c1cc/c(=N\Nc2ccccc2)c(=O)/c1=N/Nc1ccccc1 | 0.65
Cc1cc(N)c2cc(NC(=O)C=Cc3ccccc3Cl)ccc2n1 | -0.2
CN1C2CCC1CC(OC(c1ccccc1)c1ccccc1)C2 (centres undefined) | 0.15
CC(=O)c1c(O)c(C)c(O)c2c1OC1=CC(=O)/C(=C(/C)N)C(=O)C12C (centres undefined) | 0.1
CN(C)C=Nc1ccc(Cl)c(Cl)c1 | 0
COc1cc(S(N)(=O)=O)c(OC)cc1N | 1.5
Cn1nc(NC(=O)C(F)(F)F)c2ncc(-c3ccc(Cl)cc3)nc21 | 0.7
CC(C1=C(CCN(C)C)Cc2ccccc21)c1ccccn1 (centres undefined) | -0.2
Cc1cc(N(C)C)ccc1N=Nc1ccc2ncccc2c1 | -0.55
Cc1c(C#N)c2n(c1C)CCCC(=O)N2 | 1.25
OC(COc1ccccc1)CN1CCN(c2ccccc2)CC1 (centres undefined) | -0.25
CC(=O)Nc1cc(NC(C)=O)ncn1 | 0.6
NC(=S)N/N=C\c1cc(-c2cccc(N)c2)ccn1 | -0.4
O=c1nccc(SCc2ccc(Cl)cc2Cl)[nH]1 | 0.15
CC(=O)OC1COC(OC(C)=O)CO1 (centres undefined) | 0.65
Cc1cc(C)c(C#N)c(Sc2nc(C)c([N+](=O)[O-])c(C)c2C#N)n1 | -0.15
C1=Cc2ccccc2Nc2ccccc21 | -0.35

Structures from the list above that have a tert-butyl group:
SMILES | T3 sensor activation Q score
CC(=O)O[C@@]12CO[C@@H]1C[C@H](O)[C@@]1(C)C(=O)[C@H](O)C3=C(C)[C@@H](OC(=O)[C@H](O)[C@@H](NC(=O)OC(C)(C)C)c4ccccc4)C[C@@](O)([C@@H](OC(=O)c4ccccc4)[C@H]21)C3(C)C | -1
CC(C)(C)C(=O)/C=C/c1ccc(Oc2ccccc2)cc1 | -0.3

Continuation.

SMILES | T3 sensor activation Q score
CC(=O)NCC(O)c1ccc([N+](=O)[O-])cc1 (centres undefined) | 1.75
NNC(=O)Cc1cc(=O)[nH][nH]1 | 0.55
O=C(O)c1cncc(Br)c1 | -1.25
O=C(NCc1ccco1)Nc1cccc([N+](=O)[O-])c1 | 0.05
Nc1nc(Cl)nc2c1ncn2[C@H]1C[C@H](O)[C@@H](CO)O1 | 0.7
Oc1ccc2ccc3[nH]cnc3c2c1 | -1.25
NC(=Nc1nc(-c2ccccn2)cc2ccccc12)c1ccccn1 | -0.35
Cn1c(=O)c2c(nc(Oc3ccccc3)n2C)n(C)c1=O | 0.7
COc1cccc2c1C(=O)c1c(O)c3c(c(O)c1C2=O)C[C@@](O)(C(=O)CO)C[C@@H]3O[C@H]1C[C@H](N)[C@H](O)[C@H](C)O1 | -1.1
C=CCNc1ncnc2sc(SC)nc12 | 1.35
O=c1[nH]c(=S)[nH]cc1Oc1ccc(Cl)cc1Cl | 0.05
CCN1CCCC(Sc2nc3c([nH]2)c(=S)n(C)c(=O)n3C)C1 (centres undefined) | 1.1
OC[C@H]1O[C@@H](n2cnc3c2NC=NC[C@H]3O)C[C@@H]1O | 1.3
O=C(O)/C=C\C(=O)Nc1nccs1 | -0.3
CCOC(=O)c1c(C)nc(C)c(C(=O)OCC)c1-c1ccc(OC)cc1 | 0.3
CSc1ncc2ncn(C3OC(CO)C(O)C3O)c2n1 (centres undefined) | 1.45
Cc1cc(O)c(-c2cc(O)c(C)cc2O)cc1O | 0.2
C(=C\c1ccncc1)/c1ccncc1 | 0.45
Clc1ccc(Nc2nnc(-c3ccc4c(c3)OCO4)o2)cc1 | 0.55
CCOC(=O)CC(=O)NC(C)(C)CCCCC(C)(C)NC(=O)CC(=O)OCC | -0.2
CCC(CNc1cc(OC)cc2cccnc12)NC1CCCCC1 (centres undefined) | 1.4
NC(N)=NC(N)=Nc1ccc(O)cc1 | -0.4
Cn1c2c(c(=O)n(C)c1=O)NC1(N2)C(=O)Nc2ccccc21 (centres undefined) | -1.7
CC(=O)Nc1nc(C)c(CCC2OCCO2)c(=O)[nH]1 | 0.75
